## Small-molecule microarray binding calls

Calls as published in the ROBIN set (doi:10.1002/anie.202211358).

Oligonucleotides screened, 5′ to 3′:
TPP: TPP riboswitch RNA three-way junction, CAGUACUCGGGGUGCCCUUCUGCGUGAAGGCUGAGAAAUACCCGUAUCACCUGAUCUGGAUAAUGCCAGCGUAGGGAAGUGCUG. Hit rate about 0.7% of about 24,000 compounds.
SAM-II: SAM-II riboswitch RNA pseudoknot, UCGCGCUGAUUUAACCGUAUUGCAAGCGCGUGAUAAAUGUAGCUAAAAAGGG. Hit rate about 1% of about 21,000 compounds.
PreQ1: PreQ1 riboswitch RNA pseudoknot, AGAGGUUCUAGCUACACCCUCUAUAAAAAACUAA. From B. subtilis. Hit rate about 0.7% of about 24,000 compounds.

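Each compound is printed as two spots on a slide made to bind it covalently, so it has no test concentration; the read-out is fluorescence of the bound, labelled oligonucleotide. The data file lists only calls. An earlier report of the laboratory on the PreQ1, TPP and SAM-II riboswitches (doi:10.1038/s41467-019-09493-3) used 1 µM RNA for 2 h and required a mean Z-score above 3 (spot signal-to-noise against the whole library), a score well above that on a control array, and duplicate spots agreeing (coefficient of variation under 100); it then also set aside compounds that hit other targets, which this list keeps. The cut-offs behind this list may differ. A missing hit is not proof of no binding, and a hit is not a measured affinity.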
Key: active = hit, inactive = tested without a hit.
Compounds were drawn at random from those tested, without regard to their results.
A target missing from an entry has no call listed here.

For C[C@@H](NCCCc1cccc(C(F)(F)F)c1)c1cccc2ccccc12 the calls were TPP: inactive; SAM-II: inactive; PreQ1: inactive.
For COc1cccc(C(O)CNC(=O)C2CCN(C(=O)C3CCC3)CC2)c1 (stereo not shown) the calls were TPP: inactive; SAM-II: inactive; PreQ1: inactive.
For CSCC[C@@H](CO)NC[C@@H]1CCCN2CCCC[C@H]12 the calls were TPP: inactive; SAM-II: inactive; PreQ1: inactive.
For COCCN[C@H]1CS(=O)(=O)C[C@@H]1S(=O)(=O)c1ccc(OC)cc1 the calls were TPP: inactive; PreQ1: inactive.
For OCCCn1cnc(-c2ccccc2)c1-c1ccc2cccc(O)c2n1 the calls were TPP: inactive; SAM-II: inactive; PreQ1: inactive.
For Cc1ccc(CNc2ncccc2-c2nc(C)no2)cc1 the calls were TPP: inactive; PreQ1: inactive.
For CN1C2CC(OC(=O)C(CO)c3ccccc3)CC1C1OC12.Cl (stereo not shown) the calls were TPP: inactive; SAM-II: inactive; PreQ1: inactive.
For C[C@H]([C@@H](O)c1ccc(O)cc1)n1ccnc1-c1cc2ccccc2o1 the calls were TPP: inactive; SAM-II: inactive; PreQ1: inactive.
For COC(=O)C1=C(N)OC2=C(C(=O)CCC2)C1c1ccc(Br)cc1 (stereo not shown) the calls were TPP: inactive; SAM-II: inactive; PreQ1: inactive.
For Cc1ccccc1CSCCN the calls were TPP: inactive; SAM-II: inactive; PreQ1: inactive.
For O=S(=O)(c1cccc2ccccc12)N1CCC2(CCCNC2)C1 (stereo not shown) the calls were TPP: inactive; SAM-II: inactive; PreQ1: inactive.
For Cc1ccc(F)cc1NC1OC(=O)c2ccccc21 (stereo not shown) the calls were TPP: inactive; SAM-II: inactive; PreQ1: inactive.
For CCCOc1ccc(C2C(C#N)=C(N)OC3=C2C(=O)CC(C)(C)C3)cc1 (stereo not shown) the calls were TPP: inactive; SAM-II: inactive; PreQ1: inactive.
For Cc1cc2[nH]c(CN3CC[C@H]4CNC[C@H]43)cc(=O)n2n1 the calls were TPP: inactive; SAM-II: inactive; PreQ1: inactive.
For CCCc1c(C)nc2ncnn2c1NCc1cccc(OC)c1 the calls were TPP: inactive; SAM-II: inactive; PreQ1: inactive.
For CCOC(=O)c1nc(Nc2cc(C)cc(C)c2)c2ccccc2n1 the calls were TPP: inactive; SAM-II: inactive; PreQ1: inactive.
For COc1ccccc1N1CC(Nc2nc(N)nc3c2CCCC3)CC1=O (stereo not shown) the calls were TPP: inactive; SAM-II: inactive; PreQ1: inactive.
For CN1CCN(c2nc(=O)cc(N)[nH]2)CC1 the calls were TPP: inactive; SAM-II: inactive; PreQ1: inactive.
For N[C@H]1CC[C@@H](n2cc(C(=O)N3CCC[C@H]3c3nc(C4CC4)no3)nn2)CC1 the calls were TPP: inactive; SAM-II: inactive; PreQ1: inactive.
For Cc1n[nH]c(SCCNC2CCN(c3nc4ccccc4s3)CC2)n1 the calls were TPP: inactive; SAM-II: inactive; PreQ1: inactive.
For O=NC1=C(c2cccc([N+](=O)[O-])c2)Nc2ccccc2S1 the calls were TPP: inactive; SAM-II: inactive; PreQ1: inactive.
For CCOC(=O)N1CCC(Nc2c(N3CCC(C)CC3)c(=O)c2=O)CC1 the calls were TPP: inactive; PreQ1: inactive.
For Cc1cc(C)n(Cc2ccc(C(=O)NCc3cc4n(n3)CCCNC4)cc2)n1 the calls were TPP: inactive; SAM-II: inactive; PreQ1: inactive.
For N[C@@H](Cc1ccc(N(CCCl)CCCl)cc1)C(=O)O the calls were TPP: inactive; SAM-II: inactive; PreQ1: inactive.
For CCc1cccc(CC)c1NC(=O)N1Cc2[nH]nc(NC(=O)c3ccc(N4CCN(C)CC4)cc3)c2C1 the calls were TPP: inactive; SAM-II: inactive; PreQ1: inactive.
For CC(C)C[C@H](CN)CC(=O)O the calls were TPP: inactive; SAM-II: inactive; PreQ1: inactive.
For COc1ccnc(C(=O)N2CCN(CCCO)CC(O)C2)c1 (stereo not shown) the calls were TPP: inactive; SAM-II: inactive; PreQ1: inactive.
For Cc1c(C(=O)N2CCC3(CC2)[C@H](O)C[C@@H]3OCCO)sc2ccccc12 the calls were TPP: inactive; SAM-II: inactive; PreQ1: inactive.
For CCOc1c(Cl)cc(CNCCc2c[nH]c3ccccc23)cc1OC the calls were TPP: inactive; SAM-II: inactive; PreQ1: inactive.
For Cc1cc(C)n(-c2nnc(N)nn2)n1 the calls were TPP: inactive; SAM-II: inactive; PreQ1: inactive.
For CCOC(=O)c1ccc(COC(=O)c2nonc2N)cc1 the calls were TPP: inactive; SAM-II: inactive; PreQ1: inactive.
For Cc1ccc(C)c(NC(=O)Cn2nnc(C(=O)NCc3ccc(F)cc3)c2N)c1 the calls were TPP: inactive; SAM-II: inactive; PreQ1: inactive.
For COc1ccccc1C(CCNCc1ccccc1F)c1ccco1 (stereo not shown) the calls were TPP: inactive; SAM-II: inactive; PreQ1: inactive.
For Cn1c(=O)c2c(nc(N3CCCCC3)n2C)n(C)c1=O the calls were TPP: inactive; SAM-II: inactive; PreQ1: inactive.

Once more, the final 3:

SMILES	TPP	SAM-II	PreQ1
Cc1ccc(C)c(NC(=O)Cn2nnc(C(=O)NCc3ccc(F)cc3)c2N)c1	inactive	inactive	inactive
COc1ccccc1C(CCNCc1ccccc1F)c1ccco1 (stereo not shown)	inactive	inactive	inactive
Cn1c(=O)c2c(nc(N3CCCCC3)n2C)n(C)c1=O	inactive	inactive	inactive